Measurements: US20150119360A1, “COMPOSITION FOR PROMOTING BIFIDOBACTERIA GROWTH” (Kyoto University, priority 2012, published 2015)
Some of these results come from one statement about several compounds together.

Assays:
[1] = system: Bifidobacterium longum subsp. Infantis 1210 strain; assay: Growth-promoting (prebiotic) effect, OD600 after 24 hr anaerobic culture in GAM bouillon; type: cell-based; conditions: B. longum subsp. Infantis 1210, 0.5 (w/v) % oligosaccharide, 37° C.
[2] = system: Bifidobacterium bifidum 1254 strain; assay: as above; type: cell-based; conditions: B. bifidum 1254, 0.5 (w/v) % oligosaccharide, 37° C.

Compound	prebiotic effect (OD600 of oligosaccharide addition test plot/OD600 of control plot) [1] [fold]	prebiotic effect (OD600 of oligosaccharide addition test plot/OD600 of control plot) [2] [fold]
CC(=O)N[C@H]1[C@H](O[C@H]2[C@@H](O)[C@@H](CO)O[C@@H](O[C@H]3[C@H](O)[C@@H](O)[C@@H](O)O[C@@H]3CO)[C@@H]2O)O[C@H](CO)[C@@H](O[C@@H]2O[C@H](CO)[C@H](O)[C@H](O)[C@H]2O)[C@@H]1O [LNnT, 4-O-[3-O-(4-O-β-D-galactopyranosyl-2-acetylamino-2-deoxy-β-D-glucopyranosyl)-β-D-galactopyranosyl]-α-D-glucopyranose]	≥ 2	≥ 2
4-O-[3-[2-(acetylamino)-2-deoxy-3-O-(β-D-galactopyranosyl)-β-D-glucopyranosyl]-β-D-galactopyranosyl]-D-glucose [LNT]	≥ 2	≥ 2
